Test results: article PMC4569481
These are yes or no findings as the source states them, for the method shown. Some entries that bind do so weakly or less than the wild type.

Amino acid sequences for entries named in this document (tags omitted). A change or cut given only in a name is not applied to a line headed by its entry. Residues count along the entry.
UniProt P04004, residues 99-398: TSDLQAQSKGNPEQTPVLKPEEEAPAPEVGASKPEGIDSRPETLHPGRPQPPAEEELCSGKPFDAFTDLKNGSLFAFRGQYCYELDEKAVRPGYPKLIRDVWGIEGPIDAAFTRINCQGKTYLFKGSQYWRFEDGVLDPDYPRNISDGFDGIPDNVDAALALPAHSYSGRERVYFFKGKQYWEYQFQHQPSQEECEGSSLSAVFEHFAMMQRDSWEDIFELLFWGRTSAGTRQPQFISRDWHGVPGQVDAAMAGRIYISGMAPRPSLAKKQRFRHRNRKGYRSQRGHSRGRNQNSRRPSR
UniProt P10909: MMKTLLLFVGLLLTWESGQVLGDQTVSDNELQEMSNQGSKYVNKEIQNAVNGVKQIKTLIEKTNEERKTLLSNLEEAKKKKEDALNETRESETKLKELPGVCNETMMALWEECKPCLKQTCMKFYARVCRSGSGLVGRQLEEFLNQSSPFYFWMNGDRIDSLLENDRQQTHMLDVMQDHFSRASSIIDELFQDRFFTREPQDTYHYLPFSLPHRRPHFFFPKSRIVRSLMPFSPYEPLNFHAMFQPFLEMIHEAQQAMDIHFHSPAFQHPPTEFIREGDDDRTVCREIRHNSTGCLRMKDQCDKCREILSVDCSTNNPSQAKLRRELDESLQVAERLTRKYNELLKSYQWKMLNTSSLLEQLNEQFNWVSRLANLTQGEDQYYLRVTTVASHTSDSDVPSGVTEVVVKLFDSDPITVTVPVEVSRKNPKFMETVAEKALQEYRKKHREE

Assays:
[1] = biological target: Dihydrolipoamide dehydrogenase (Lpd) of P. aeruginosa, recombinant full length (Lpd^1-478) (P. aeruginosa strain PAO1) (UniProt Q9I3D1); assay: ELISA; Lpd (5 μg/ml) coated on microtiter plates overnight at 4°C; vitronectin (0.01–12.5 μg/ml), recombinant vitronectin constructs (5 μg/ml) or clusterin (0.01–20 μg/ml) added 1 h at RT; detected with antibodies, absorbance at 492 nm; both purified
[2] = biological target: Lpd deletion mutant Lpd^264-478 (P. aeruginosa strain PAO1) (UniProt Q9I3D1); assay: ELISA; equimolar amounts (13.3 nM) of full length Lpd and Lpd deletion mutants immobilized on microtiter plates; vitronectin or clusterin added; bound ligand quantified with antibodies; both purified
[3] = biological target: Lpd deletion mutant Lpd^1-287 (P. aeruginosa strain PAO1) (UniProt Q9I3D1); assay: as above
[4] = biological target: Lpd deletion mutant Lpd^141-478 (P. aeruginosa strain PAO1) (UniProt Q9I3D1); assay: as above

Substance | binding [1] | binding [2] | binding [3] | binding [4]
vitronectin^80-379 (from UniProt P04004 99-398) (domain or fragment) | binds |  |  | 
clusterin, purified from human plasma (from UniProt P10909 23-227; P10909 228-449) |  | binds weakly | binds weakly | binds weakly
